This note sets out measurements from publication PMC3672107.

Sequences of proteins named here, by UniProt entry; tags and fusion partners are left off. Residues count along the entry.
UniProt P56817, residues 46-501: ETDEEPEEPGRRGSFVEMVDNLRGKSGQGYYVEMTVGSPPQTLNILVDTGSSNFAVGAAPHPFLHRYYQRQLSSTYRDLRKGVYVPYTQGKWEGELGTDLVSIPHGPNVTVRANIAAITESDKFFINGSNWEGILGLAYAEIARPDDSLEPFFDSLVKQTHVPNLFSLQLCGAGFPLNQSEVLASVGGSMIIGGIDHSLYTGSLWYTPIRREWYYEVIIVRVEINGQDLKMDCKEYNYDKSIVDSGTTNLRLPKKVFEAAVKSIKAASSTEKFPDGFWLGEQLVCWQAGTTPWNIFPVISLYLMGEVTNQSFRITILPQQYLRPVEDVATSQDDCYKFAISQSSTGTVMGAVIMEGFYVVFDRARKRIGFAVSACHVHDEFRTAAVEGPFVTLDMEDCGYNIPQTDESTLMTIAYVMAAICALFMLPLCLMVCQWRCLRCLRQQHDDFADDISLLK
UniProt P05067, residues 18-770: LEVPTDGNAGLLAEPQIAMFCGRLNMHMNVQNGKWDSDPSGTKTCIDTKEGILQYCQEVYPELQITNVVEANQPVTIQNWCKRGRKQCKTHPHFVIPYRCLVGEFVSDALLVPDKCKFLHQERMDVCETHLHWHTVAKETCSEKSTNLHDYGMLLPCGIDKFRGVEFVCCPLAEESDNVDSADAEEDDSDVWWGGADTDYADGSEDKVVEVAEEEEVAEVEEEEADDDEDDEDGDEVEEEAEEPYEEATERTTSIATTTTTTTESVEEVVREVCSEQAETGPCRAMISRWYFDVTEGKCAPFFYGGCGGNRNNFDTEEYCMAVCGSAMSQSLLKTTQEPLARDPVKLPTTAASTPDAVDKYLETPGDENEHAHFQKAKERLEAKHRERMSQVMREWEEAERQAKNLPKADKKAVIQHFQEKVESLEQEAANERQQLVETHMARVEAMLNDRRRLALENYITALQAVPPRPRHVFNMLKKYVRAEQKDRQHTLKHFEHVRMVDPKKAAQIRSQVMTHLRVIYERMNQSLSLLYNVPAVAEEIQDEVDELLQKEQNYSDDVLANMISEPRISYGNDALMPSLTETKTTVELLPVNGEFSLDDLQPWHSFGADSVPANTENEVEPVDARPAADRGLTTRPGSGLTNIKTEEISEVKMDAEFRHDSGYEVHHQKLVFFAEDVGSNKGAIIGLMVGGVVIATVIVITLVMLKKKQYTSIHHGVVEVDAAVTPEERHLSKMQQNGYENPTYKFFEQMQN

The target in the assay is T1, Leucine rich repeat transmembrane protein 3 (LRRTM3) with a V5 tag (human) (UniProt Q86VH5).
T1 sequence: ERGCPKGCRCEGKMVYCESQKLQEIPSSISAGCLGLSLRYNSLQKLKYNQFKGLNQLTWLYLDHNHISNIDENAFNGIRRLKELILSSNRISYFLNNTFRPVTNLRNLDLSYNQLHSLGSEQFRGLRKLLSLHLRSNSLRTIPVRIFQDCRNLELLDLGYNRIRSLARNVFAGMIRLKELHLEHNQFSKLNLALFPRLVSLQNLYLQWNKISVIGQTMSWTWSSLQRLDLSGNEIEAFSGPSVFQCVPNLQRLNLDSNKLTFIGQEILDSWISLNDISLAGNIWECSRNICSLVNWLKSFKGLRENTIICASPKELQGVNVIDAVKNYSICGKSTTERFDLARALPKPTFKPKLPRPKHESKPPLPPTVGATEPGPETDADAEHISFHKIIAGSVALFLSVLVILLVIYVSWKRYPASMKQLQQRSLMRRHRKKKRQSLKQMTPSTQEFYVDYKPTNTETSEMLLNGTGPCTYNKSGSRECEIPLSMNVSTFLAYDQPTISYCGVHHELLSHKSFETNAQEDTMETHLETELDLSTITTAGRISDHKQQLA
Description: co-IP; HEK293T cells transfected with LRRTM3-V5 and BACE1-GFP; lysed in IP buffer (150mM NaCl, 50mM Tris pH 7.5, 0.1% Triton); 1 ug of anti-V5, anti-GFP or CT20 antibody on Dynabeads Protein G, 30 minutes with the lysate, extensively washed; Western blot of the eluted immunocomplexes.

No constants are given. Whether binding was seen depends on the method and setting. In cells and extracts the contact can be indirect. Some entries that bind do so weakly or less than the wild type. Where a sequence is shown, tags or fusion partners need not be part of it.

As for “BACE1 with a GFP tag (from UniProt P56817 46-501) (enzyme)”, the binding result is recorded as “binds”. As to “Amyloid precursor protein (APP), endogenous in HEK293T cells (from UniProt P05067 18-770)”, the binding entry was “binds”.
